Out of some 370,000 compounds screened, about 1,100 (0.3%) were called active. About 1% were inconclusive and are not listed. Calls come from the whole dose curve; as a rule, active = well fitted activation curve with a large enough effect; inconclusive = small, poorly fitted or top-dose-only effect; inactive = flat fitted curve, though single readings scatter. The list shows a part of the results, in another mix than the full data. The source gives no active or inactive call for entries shown without one. Some compounds were tested as several samples or in several runs, with calls that do not always agree.
% is set by controls: 0 for no effect and ±100 for the full control effect; potency is the fitted concentration of half-maximal effect.

Chains of the proteins cited; added tags and fusions are not shown.
UniProt Q9HBX9, whole entry, looked up: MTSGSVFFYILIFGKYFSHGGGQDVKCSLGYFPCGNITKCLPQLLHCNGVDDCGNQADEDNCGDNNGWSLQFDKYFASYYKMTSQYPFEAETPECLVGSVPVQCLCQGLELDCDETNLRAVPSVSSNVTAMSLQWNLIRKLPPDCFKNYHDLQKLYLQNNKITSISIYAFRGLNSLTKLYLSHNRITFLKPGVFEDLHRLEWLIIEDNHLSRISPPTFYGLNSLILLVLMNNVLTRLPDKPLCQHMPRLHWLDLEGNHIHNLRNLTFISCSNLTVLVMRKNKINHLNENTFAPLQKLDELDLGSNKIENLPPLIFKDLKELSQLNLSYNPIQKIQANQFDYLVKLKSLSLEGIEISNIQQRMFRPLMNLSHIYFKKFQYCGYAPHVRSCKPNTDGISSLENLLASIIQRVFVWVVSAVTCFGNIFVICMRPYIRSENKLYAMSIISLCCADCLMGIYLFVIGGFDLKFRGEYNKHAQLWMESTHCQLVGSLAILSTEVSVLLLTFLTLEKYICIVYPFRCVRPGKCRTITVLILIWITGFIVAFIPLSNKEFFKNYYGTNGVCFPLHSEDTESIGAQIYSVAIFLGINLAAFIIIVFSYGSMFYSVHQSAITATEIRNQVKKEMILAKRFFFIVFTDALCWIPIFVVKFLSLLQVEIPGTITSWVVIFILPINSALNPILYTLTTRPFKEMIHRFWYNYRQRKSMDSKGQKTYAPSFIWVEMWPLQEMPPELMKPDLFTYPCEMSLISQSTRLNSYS

The target in the experiment is Relaxin receptor 1 (Homo sapiens) (UniProt Q9HBX9). Briefly: qHTS Assay for Agonists of the Relaxin Receptor RXFP1. Note: nearly all actives have a fitted effect of over 60% in size. To be noted: HEK293T-RXFP1 cAMP TR-FRET, 30 min; activation: at 57.5 µM (top of the series), percent of porcine relaxin response, buffer zero. The text has this: NIH Chemical Genomics Center [NCGC] NIH Molecular Libraries Probe Production Centers Network [MLPCN] MLPCN Grant: R03 MH085705-01A1 Assay Submitter (PI): Alexander Agoulnik NCGC Assay Overview: The relaxin hormone is involved in the variety of biological functions in normal tissues and diseases. The role of relaxin is well-established in female reproduction and parturition, mammary gland and endometrial development, maintenance of myometrial quiescence during pregnancy. Relaxin signaling through its G protein-coupled receptor (GPCR) RXFP1 results in ECM remodeling through regulation of collagen deposition, cell invasiveness, proliferation and overall tissue homeostasis. […] Recombinant human relaxin (rhRlx) is currently being tested in clinical trials as a protective agent in congestive heart failure, in treating severe preeclampsia, and as an anti-fibrotic agent in systemic sclerosis. Upon relaxin binding RXFP1 activation leads to the activation of adenylate cyclase (AC) via Gs. cAMP will activate PKA, which phosphorylates many signaling proteins. Thus, detection of cAMP increase is an easy and reliable indication of relaxin receptor activation. To screen for agonists of the relaxin receptor, a HEK293T cell line stably transfected with RXFP1 was used. RXFP1 activation was assayed by changes in cAMP levels as detected with a time-resolved fluorescence energy transfer (TR-FRET) cAMP detection kit.
NCGC Assay Protocol Summary: This is a cell-based assay for cAMP second messenger response to screen for agonists of the RXFP1 receptor. The assay was conducted in the presence of a PDE4 inhibitor (Ro 20174). The cells were lysed and the cAMP levels were measured with a TR-FRET cAMP kit. Presence of cAMP in the cell lysate disrupts binding between the cryptate-labeled anti-cAMP and d2-labeled cAMP pair, leading to a decrease in the TR-FRET signal. Data were normalized to the controls for basal activity (buffer only) and 100% activity (29 nM porcine relaxin). The EC50 values were determined from concentration-response data modeled with the standard Hill equation 1536-well assay protocol for the HEK293 RXFP1 cAMP assay: (1) Add 3 ul HEK293 RXFP1 cell culture. 2000 cells/well in DMEM/F12, 10% FBS, 1x Pen/Strep (dispensed offline with MultiDrop Combi). (2) Incubate 16-24 hr at 37C, 5% CO2. (3) Add 1 ul 400uM Ro20174 in DPBS, 0.05% BSA, 0.005% Tween 20. (3) Add 23 nl compounds in DMSO solution. Final concentration was 0.5 - 58 uM. (4) Incubate 30 min at 37C, 5% CO2. (5) Add 1 ul cAMP-d2 in lysis buffer (HTRF cAMP HiRange kit, CisBio). (6) Add 1 ul anti-cAMP antibody-cryptate in lysis buffer (HTRF cAMP HiRange kit, CisBio). (7) Incubate 30 min at room temperature. (6) Detect the assay plate in a ViewLux plate reader (PerkinElmer) with Ex=320 nm, Em1=615 nm and Em2=665 nm. Keywords: relaxin, RXFP1, RXFP2, G-protein coupled receptor, cAMP, agonist, high throughput screening, MLSMR, MLSCN, NIH Roadmap, qHTS and NCGC
For orientation: qHTS replaces the single test concentration by a dilution series.
Regarding `CC(=O)c1cccc(NC(=O)c2nc3ccccc3n(C)c2=O)c1`, the Potency was active: 15.8 µM.

Regarding `COC(=O)c1ccc(NC(=O)CC2Nc3cc(C)c(C)cc3NC2=O)cc1` (stereo not given), the activation was -0.514%.

Take `CCOC(=O)c1sc(=NC(=O)c2cccs2)n(C)c1C`: the Potency is active: 28.2 µM.

For `CN(Cc1ccco1)S(=O)(=O)c1nnc(NC(=O)c2ccccc2Cl)s1`, the “activation” value was inactive: 6.44%.

In the case of `O=C1CN(c2nc3ccccc3n3cnnc23)CC(=O)N1CCc1ccccc1`, the activation was 5.82%.

For `Cc1sc2ncn(CC(=O)Nc3ccc(C(C)C)cc3)c(=O)c2c1S(=O)(=O)N1CCN(c2ncccn2)CC1`, the Potency is active: 25.1 µM.

As for `CC1CCCN(S(=O)(=O)c2ccc3c(c2)CCN3C(=O)CCC(=O)O)C1` (stereo not given), the activation came out at 2.11%.

For the compound `O=[N+]([O-])c1cccc(COc2ncnc3cc([N+](=O)[O-])ccc23)c1`, the Potency was active: 28.2 µM.

Turning to `COc1cc(-c2nnc(SCC(=O)N(C)C3CCS(=O)(=O)C3)o2)cc(OC)c1OC` (stereo not given), the activation came out at 7.51%.

For the compound `Cc1nn(CCC(=O)NC(C)C)c(=O)c2nn(-c3ccccc3)c(C)c12`, the activation is -4.5%.

For the compound `O=C(Cn1c(=O)n(CCCS(=O)(=O)C2CCCCC2)c(=O)c2ccccc21)Nc1ccccc1F`, the activation stood at 91.8%.

As for `COc1ccccc1-c1cc2nc(C)c(CCC(=O)NCCc3ccc(SC)cc3)c(C)n2n1`, the activation came to 46.6%.

`Cc1cccc(-n2ncc(C(=O)NCc3ccccn3)c2C2CCN(C(=O)OC(C)(C)C)CC2)c1`: the activation was determined as 1.47%.

In the case of `CCn1c2ccccc2c2cc(NC(=O)COc3cccc(C)c3)ccc21`, the activation turned out to be 38.2%.

Consider `Cc1ccc(Cl)cc1N1CCN(C(=O)C(C)n2ncn3cccc3c2=O)CC1` (stereo not given), for which the “activation” value is inactive: 4.61%.

Take `O=C(Nc1c(C(=O)N2CCN(c3ccc(F)cc3)CC2)oc2ccccc12)c1ccco1`: the activation stood at 183%.

Take `COc1cc(C2C(C(=O)c3cc4ccccc4o3)=C(O)C(=O)N2CCN2CCOCC2)ccc1OCCC(C)C` (stereo not given): the Potency was active: 28.2 µM.

Take `Cc1cn(S(=O)(=O)c2ccc(Br)c3ccccc23)cn1`: the Potency is active: 22.4 µM.

Regarding `COc1cccc(CNC(=O)c2ccc(CS(=O)Cc3ccc(C)cc3)o2)c1` (stereo not given), the activation is 5.47%.

Consider `O=C(CN1C(=O)c2cccc3cccc(c23)C1=O)NCCN1CCOCC1`, for which the Potency is active: 14.1 µM.

Take `Cc1ccc(NC(=O)c2sc3nc(-c4cccs4)ccc3c2N)cc1F`: the activation came out at 54.4%.

Turning to `Fc1ccc(-c2cn3cc(Cc4ccccc4)sc3n2)cc1`, the activation stood at 32.4%.

Regarding `Cc1nn(CC(=O)N2CCN(c3cccc(C(F)(F)F)c3)CC2)c(=O)c2cccn12`, the “activation” value is inactive: 0.921%.

In the case of `Cc1cccc(N2CCN(C(=O)c3cc(S(=O)(=O)N4CCC(C)CC4)cn3C)CC2)c1C`, the activation turned out to be 31.3%.

Regarding `CC1=C/C(=C(/c2cc(C)c(O)c(Br)c2)c2ccccc2S(=O)(=O)O)C=C(Br)C1=O`, the “activation” value was inactive: -37.2%.

In the case of `CCN(CCCNC(=O)c1cc2c(=O)n(C)c3ccccc3c2s1)Cc1ccccc1`, the activation is 70%.

On to `CCC(=O)N1CCc2cc(S(=O)(=O)NCCC(=O)Nc3ccc(OC)c(Cl)c3)ccc21`, for which the activation is 10.5%.

Consider `CCN(CCCNC(=O)c1cc2c(=O)[nH]c3ccc(C)cc3c2s1)c1ccc(C)cc1`, for which the activation was 16.1%.

As to `CCOc1ccccc1NC(=O)Nc1ccc2nc(N3CCN(C)CC3)cc(C)c2c1`, the activation amounted to 22.6%.

As for `COc1cc2c(cc1NC(=O)COc1ccc(Br)c(C)c1)oc1ccccc12`, the activation worked out at 59.9%.

Regarding `CC(=O)Nc1c2c3c(cccc3n(C)c1=O)C(=O)c1ccccc1-2`, the activation was 94.1%.

As to `NC(=O)CC(NC(=O)Cc1ccc(Br)cc1)c1ccc(NCCc2ccccc2F)c([N+](=O)[O-])c1` (stereo not given), the “activation” value was inactive: -30%.

With `Cn1c(=S)[nH]c2c(c1=O)C(C)(C)Cc1ccccc1-2`, the Potency was active: 15.8 µM.

With `CCCC(=O)Nc1ncnc2c1ncn2[C@@H]1O[C@@H]2COP(=O)(O)O[C@H]2[C@H]1OC(=O)CCC`, the Potency is active: 0.158 µM.

Regarding `CCCOc1cccc(C(=O)Nc2cc(-c3nc4ccccc4[nH]3)ccc2C)c1`, the activation is 69.8%.

`CCOC(=O)c1cc(S(=O)(=O)N2CCN(c3ccc(F)cc3)CC2)[nH]n1`: the activation came out at 4.86%.

As for `O=C(O)c1ccc(N=C2NC(=O)C(CO)(CO)S2)cc1`, the activation worked out at 4.08%.

As to `Cn1cc(/C=C/c2cc[n+](C)cc2)c2cc(Cl)ccc21`, the “activation” value was inactive: -45.3%.

With `Cc1cc(O)c(CN2CCN(c3ccc(F)cc3)CC2)c2oc(=O)cc(C)c12`, the Potency was active: 25.1 µM.

For the compound `CCCOc1ccc(C(=O)Nc2ccc3oc(-c4ccc(N(C)C)cc4)nc3c2)cc1`, the Potency is active: 3.16 µM.

Source of the values: PubChem BioAssay AID2676 (National Center for Advancing Translational Sciences (NCATS), 2010).
